Measured values published in PubChem BioAssay AID1487 (National Center for Advancing Translational Sciences (NCATS), 2009).
The list shows a part of the results. Shown are side measurements of this screen, not its main read-out; they come without a call. Compounds called inactive in the main read-out are mostly missing here. Words in brackets tell the shape of the fitted curve; partial curves, single points and poor fits give uncertain potencies.

Assay: qHTS Assay for Modulators of Lamin A Splicing
Conditions: HeLa LMNA splicing GFP/RFP minigene ratio, 48 h
In short: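 S3 HeLa cells stably expressing lamin A-EGFP splicing minigene plus DsRed2, 600 cells/well, 48 h compound exposure at 37C. Laser-scanning cytometry; analysed as GFP (500-530 nm)/RFP (575-640 nm) total intensity ratio; 0.5% DMSO vehicle.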

[1] = measured here: GFP splicing reporter channel
[2] = measured here: RFP viability control channel

Structure (SMILES)	AC50 [1]	AC50 [2]
COc1ccc(CNC(=O)CSc2n[nH]c(-c3ccc(OC)cc3)n2)cc1	0.708 µM [rising, full curve, poor fit]	35.5 µM [rising, single point]
CCN(Cc1ccccc1)C(=S)Nc1cc(C(=O)OC)ccc1C(=O)OC	20 µM [rising, single point]	35.5 µM [rising, single point]
O[C@@](CCN1CCCCC1)(c1ccccc1)[C@@H]1C[C@H]2C=C[C@@H]1C2	–	5.62 µM [rising, partial curve, poor fit]
Cc1ccc(N2CCN(S(=O)(=O)c3ccc(F)cc3)CC2)c(C)c1	35.5 µM [rising, single point]	31.6 µM [rising, single point]
COc1ccccc1-n1cnnc1SCC(=O)NC1CCS(=O)(=O)C1 (centres undefined)	0.282 µM [rising, partial curve]	–
O=C(c1ccco1)N1c2ccccc2Sc2ccccc21	–	35.5 µM [rising, single point]
S=C(Nc1ccc(Cl)cc1)Nc1cccc2cnccc12	15.8 µM [rising, single point]	25.1 µM [rising, single point]
COc1cc(NC(=O)c2cc(Br)cc(C)c2OC)ccc1NC(=O)C(C)C	–	35.5 µM [rising, single point]
COc1ccc2nc(NC(=O)CSC3=NCCS3)sc2c1	20 µM [rising, single point]	20 µM [rising, single point]
Cn1c(NC(=O)C[n+]2cc(-c3ccc(Cl)cc3)n3c2CCC3)cc(=O)n(C)c1=O	–	31.6 µM [rising, single point]
CC(=O)c1c(C(C)=O)c(C)n(Cc2ccc3c(c2)OCO3)c1C	–	11.2 µM [rising, partial curve]
O=C(N/N=C/c1c(-c2ccccc2)[nH]c2ccccc12)c1cccnc1	–	7.08 µM [rising, full curve]
COC(=O)/C=C/c1ccc2c(c1)OCO2	1 µM [falling, single point]	–
CC(C)(C)C(=O)/C=c1\[nH]c(=O)/c(=C\c2ccc(F)cc2)s1	35.5 µM [rising, single point]	35.5 µM [rising, single point]
CNC(=S)SCCOc1ccccc1C	–	0.794 µM [rising, full curve, poor fit]
COc1ccc(C(=O)NNC(=O)CCCCC(=O)NNC(=O)c2ccc(OC)cc2)cc1	–	0.00316 µM [falling, full curve]
O=C(c1cccc(Cl)c1)N1CCC(=O)N(C(COCc2ccccc2)Cc2ccccc2)CC1 (centres undefined)	35.5 µM [rising, single point]	35.5 µM [rising, single point]
C=CCNC(=S)Nc1ccc(OC(F)F)c(Cl)c1	35.5 µM [falling, single point]	–
COc1cc(C2C3=C(CC(C)(C)CC3=O)OC3=C2C(=O)CC(C)(C)C3)cc([N+](=O)[O-])c1O	–	0.708 µM [falling, single point]

Arranged by length of the SMILES (ascending): part of the list above.
Structure (SMILES)	AC50 [1]	AC50 [2]
C=CCNC(=S)Nc1ccc(OC(F)F)c(Cl)c1	35.5 µM [falling, single point]	–
COc1ccc2nc(NC(=O)CSC3=NCCS3)sc2c1	20 µM [rising, single point]	20 µM [rising, single point]
Cn1c(NC(=O)C[n+]2cc(-c3ccc(Cl)cc3)n3c2CCC3)cc(=O)n(C)c1=O	–	31.6 µM [rising, single point]

Following part

Structure (SMILES)	AC50 [1]	AC50 [2]
CCOC(=O)c1ccc2c(c1)N(Cc1ccccc1)C(=O)c1ccccc1S2	–	11.2 µM [rising, partial curve, poor fit]
COc1ccc(CCNC(=O)CCSCc2ccccc2Cl)cc1OC	0.00631 µM [rising, full curve, poor fit]	–
O=C(Nc1cc(Cl)cc(Cl)c1)c1ccc(F)c(S(=O)(=O)NC2CCCCC2)c1	35.5 µM [falling, single point]	25.1 µM [falling, partial curve, poor fit]
NS(=O)(=O)c1ccc(NC(=O)COC(=O)CCc2ccccc2)cc1	–	0.00316 µM [falling, full curve, poor fit]
O=C(NC1=NCCS1)c1cccc(OC(F)F)c1	5.62 µM [rising, single point]	–
Cc1ccc(C(=O)Nc2ccc3cn[nH]c3c2)cc1S(=O)(=O)N1CCCCC1	–	12.6 µM [rising, partial curve]
CCn1c(=O)c(C(=O)NCc2cccnc2)c(O)c2ccccc21	15.8 µM [rising, single point]	17.8 µM [rising, single point]
CNC(=O)c1cccn1-c1ccsc1C(=O)OC	–	0.0355 µM [falling, full curve, poor fit]
CCOC(=O)c1ccc2c(c1)nc(C1CCN(S(=O)(=O)c3cccs3)CC1)n2CC	–	22.4 µM [rising, single point]
O=C(NC1CC1)C1CCCN1C(=O)NC1CCCCC1 (centres undefined)	35.5 µM [rising, single point]	–
CC(C)Cn1c2c(c(=O)[nH]c1=O)C(C(F)(F)F)(C(F)(F)F)N=C(CCC1CCCCC1)N2	1.58 µM [rising, full curve]	0.0158 µM [rising, full curve, poor fit]
CC(C)NC(=O)c1onc(CSc2ccc(Cl)cc2)c1C(=O)O	3.55 µM [falling, single point]	–
O=C(c1ccco1)N1CCN(C(=O)C2CC(c3ccc(Cl)c(Cl)c3)=NO2)CC1 (centres undefined)	–	35.5 µM [rising, single point]
Cc1ccc(NC(=O)CCNS(=O)(=O)c2cc(Br)cnc2N)cc1Cl	12.6 µM [rising, single point]	25.1 µM [rising, single point]
Cc1nc(Nc2ccc(S(=O)(=O)N3CCCCC3C)cc2)c2nnn(Cc3ccccc3)c2n1 (centres undefined)	–	7.94 µM [rising, partial curve]
Cc1ccc(NC(=O)CN2CCC(NC(=O)C3CCCCC3)CC2)c(Br)c1	35.5 µM [rising, single point]	–
CCN(Cc1ccccc1)C(c1cccs1)c1nnnn1C1CCCCC1 (centres undefined)	14.1 µM [rising, single point]	35.5 µM [rising, single point]
Cc1cc(O)ccc1N/C=C(\C#N)c1nc2ccccc2o1	–	7.08 µM [rising, partial curve, poor fit]
